Test results: PubChem BioAssay AID504834 (National Center for Advancing Translational Sciences (NCATS), 2011)
Screen size: about 320,000 compounds; about 22,000 (6.9%) were called active. This list was built around the results that the source calls inconclusive (neither active nor inactive); the mix of calls is not that of the screen. The call rests on the fitted dose curve; in most records, active means well fitted inhibition curve with a large enough effect; inconclusive means small, poorly fitted or top-dose-only effect, or another doubt; inactive means no such curve, though single readings can be large or run the other way. Potencies beside an inconclusive call are fits to weak or partial responses and may not hold up.

Test: Primary qHTS for delayed death inhibitors of the malarial parasite plastid, 96 hour incubation
Conditions: P. falciparum luciferase reporter growth; series mostly up to 28.7 µM
Outline: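 Readout is luminescence from an integrated firefly luciferase in P. falciparum. Red cells, 2% hematocrit and 0.05% parasitemia final, were cultured with compound through two parasite generations (96 hours) at 37 C, 5% CO2.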
Potency means the concentration at half of the fitted maximal effect.

Row | SMILES | Potency
1 | C[C@]1(C(=O)NCCc2c[nH]c3ccccc23)C=C[C@@H](Cc2ccccc2)N1C(=O)c1ccccc1 | inconclusive: 18.5 µM [inhibitor, single point]
2 | CCOC(=O)[C@@H]1[C@H]2COc3ccccc3[C@@H]2N2C(=O)N(c3cccc(C)c3)C(=O)[C@]12C | inconclusive: 6.57 µM [inhibitor, partial curve, poor fit]
3 | Cn1c(NNC(=O)c2cccc3ccccc23)cc(=O)n(C)c1=O | inconclusive: 7.38 µM [inhibitor, partial curve, poor fit]
4 | O=C(CCN1C(=O)c2ccccc2C1=O)Nn1cnnc1 | active: 2.94 µM
5 | COc1ccc(C2C3C(C)=NN=C3CC(C)(O)C2C(C)=O)cc1 (centres undefined) | inactive
6 | Cn1c(=O)c(=O)n(C)c2cc(S(=O)(=O)N3CCN(c4ccccc4F)CC3)ccc21 | inconclusive: 0.415 µM [inhibitor, partial curve, poor fit]
7 | Cc1ccc(-n2[nH]c(C)c(C=Nc3ccc4[nH]c(=O)[nH]c4c3)c2=O)cc1 | inactive
8 | Cc1ccc(-c2cc(C(F)(F)F)n3ncc(C(=O)N4CCCc5ccccc54)c3n2)cc1 | inactive
9 | CCOCN(C(=O)Cn1c(C(C)O)nc2ccccc21)c1c(C)cccc1CC (centres undefined) | active: 8.28 µM
10 | Cc1cccc(C(=O)N2CCN(c3ccc([N+](=O)[O-])c(NCc4ccco4)c3)CC2)c1 | active: 11.7 µM
11 | C=CCc1cccc(/C=N/NC(=O)c2ccc3nc[nH]c3c2)c1O | inconclusive: 18.5 µM [inhibitor, single point]
12 | C=C[C@@H]1c2ccccc2N(S(=O)(=O)c2ccc(C)cc2)[C@H](c2ccc(OC(C)=O)cc2)C1(C#N)C#N | inconclusive: 11.7 µM [inhibitor, single point]
13 | CCCCNC(=O)[C@]1(C)CCC[C@@]2(C)C3CC[C@@]4(C)C[C@]3(CCC21)CC4=O (some centres undefined) | inconclusive: 16.5 µM [inhibitor, single point]
14 | O=S(=O)(NCCCCCNS(=O)(=O)c1c(F)cccc1F)c1ccc2c(c1)OCCO2 | inconclusive: 0.0738 µM [inhibitor, full curve, poor fit]
15 | Cc1c(C(c2cc3c(cc2Br)OCO3)c2c(C)n(C)n(-c3ccccc3)c2=O)c(=O)n(-c2ccccc2)n1C | inconclusive: 9.28 µM [inhibitor, single point]
16 | CCOC(=O)C1(Cc2ccccc2C(F)(F)F)CCN(C2CCN(C(C)C)CC2)CC1 | active: 14.7 µM
17 | COc1ccc(C(CC(=O)O)NC(=O)OC(C)(C)C)cc1 (centres undefined) | inactive
18 | CCC(CC)C(=O)Nc1cc(C(=O)NCCc2ccccc2)ccc1Cl | inactive
19 | Cc1ccc(-c2nn(-c3ccccc3)cc2/C=N/NS(=O)(=O)c2ccccc2)cc1 | inconclusive: 11.7 µM [inhibitor, single point]
20 | Cc1ccc(S(=O)(=O)Nc2nc3ccc(N)cc3s2)cc1 | inactive
21 | O=C(NCCS(=O)(=O)N1CCC2(CC1)OCCO2)c1ccccc1 | inactive
22 | Cc1ccc(N2C(=O)NC(NC(=O)C(C)(C)C)(C(F)(F)F)C2=O)cc1C (centres undefined) | inconclusive: 6.57 µM [inhibitor, partial curve, poor fit]
23 | Cc1ccc(NC(=O)N2CCCC2C(=O)NCCc2ccccc2)cc1 (centres undefined) | inconclusive: 10.4 µM [inhibitor, single point]

Row | SMILES | Potency
24 | COc1ccc(OC)c(S(=O)(=O)Nc2cc(C(=O)O)ccc2N2CC3CC(C2)c2cccc(=O)n2C3)c1 (centres undefined) | inactive
25 | Cc1ccccc1N1C(S)=C(C#N)C(=O)NC12CCCCC2 | inconclusive: 11.7 µM [inhibitor, single point]
26 | Cc1ccccc1NS(=O)(=O)c1cccc2nsnc12 | inconclusive: 10.4 µM [inhibitor, single point]
27 | CC1CCN(S(=O)(=O)c2cn(CC(=O)N3CCN(c4cccc(C(F)(F)F)c4)CC3)cn2)CC1 | inactive
28 | COc1ccc(NS(=O)(=O)c2cc(NC(=O)C3CC3)ccc2N2CCCCC2)cc1 | active: 10.4 µM
29 | COc1ccc(NC(=O)COc2cccc3c2CCN(Cc2cccnc2)C3=O)cc1 | inconclusive: 8.28 µM [inhibitor, partial curve, poor fit]
30 | O=C(C[n+]1ccccc1)N/N=C/c1ccc(F)cc1 | inconclusive: 13.1 µM [inhibitor, partial curve, poor fit]
31 | CC(CNC(=O)CCS(=O)(=O)c1ccc2c(c1)oc(=O)n2C)c1ccccc1 (centres undefined) | active: 9.28 µM
32 | NC(N)=N/N=C/c1cccc([N+](=O)[O-])c1O | inactive
33 | Cc1cc(C)nc(SCC(=O)c2ccc(C)c(C)c2)n1 | active: 9.28 µM
34 | CC(Oc1cccc(Cl)c1)C(=O)Nc1ccc(N2CCOCC2)cc1N1CCOCC1 (centres undefined) | inconclusive: 14.7 µM [inhibitor, single point]
35 | CC1CN(C(=O)Nc2ccc(F)cc2F)CC(C)O1 (centres undefined) | inactive
36 | COc1ccc(C(=O)NCc2csc(C(C)C)n2)cc1OC1CCN(C(C)=O)CC1 | inconclusive: 5.22 µM [inhibitor, partial curve, poor fit]
37 | CCN(CC)CCNCC(O)(c1ccc(Cl)cc1)c1ccc(Cl)cc1 | active: 11.7 µM
38 | COc1ccccc1Nc1nnc(SCC(=O)NC2CC2)s1 | inconclusive: 5.86 µM [inhibitor, partial curve, poor fit]
39 | CN(Cc1c(F)cccc1Cl)C(=O)CNC(=O)c1ccc2c(c1)OCO2 | inactive
40 | COCc1cc(=O)n2[nH]c(C(F)(F)F)nc2n1 | inconclusive: 0.0657 µM [inhibitor, full curve, poor fit]
41 | CC(C)CN1CCN(Cc2cnc(-c3ccc(Cl)cc3)nc2)CC1CCO (centres undefined) | inconclusive: 18.5 µM [inhibitor, single point]
42 | COc1ccc(CCNC(=O)c2cc3c(=O)n4ccccc4nc3n(CCCN3CCOCC3)c2=N)cc1 | inconclusive: 1.17 µM [inhibitor, full curve]
43 | CCn1c(SCC(=O)Nc2nccs2)nnc1-c1ccc(S(=O)(=O)N2CCCCCC2)cc1 | inactive
44 | CN(C)C(=S)N=Nc1[nH]c2ccccc2c1O | inconclusive: 0.117 µM [inhibitor, partial curve, poor fit]
45 | O=C(NCCc1ccccn1)c1nc(Cn2ccc([N+](=O)[O-])n2)no1 | inconclusive: 0.0037 µM [inhibitor, full curve, poor fit]
46 | CC1=CC(C)[C@H](/C=N/n2c(=O)[nH]c3c([nH]c4ccc(Br)cc43)c2=O)C(C)C1 (some centres undefined) | inconclusive: 9.28 µM [inhibitor, partial curve, poor fit]

Row | SMILES | Potency
47 | CCc1ccccc1NC(=O)CN1CCN(C(=O)CCC(=O)N2CCC(c3ccccc3)=N2)CC1 | inconclusive: 18.5 µM [inhibitor, single point]
48 | CCc1ccc2c(CSc3nnnn3C)cc(=O)oc2c1 | inconclusive: 9.28 µM [inhibitor, partial curve, poor fit]
49 | COC(=O)C(O)(NC(=O)c1ccncc1)C(F)(F)F (centres undefined) | inactive
50 | O=C(Cn1nnc(-c2ccncc2)n1)NCCc1ccccc1 | inconclusive: 0.0052 µM [inhibitor, full curve, poor fit]
51 | Cc1ccccc1NC(=S)N/N=C1\CC(C)(C)Oc2ccc(O)cc21 | inconclusive: 1.65 µM [inhibitor, partial curve, poor fit]
52 | O=C(O)/C=C/C(=O)Nc1ccc(S(=O)(=O)Nc2nccs2)cc1 | active: 1.69 µM
53 | CCN1CCN(C(c2ccccc2)c2nnnn2Cc2ccc(OC)cc2)CC1 (centres undefined) | active: 5.22 µM
54 | COc1ccc2c(c1)CCc1cc(C(=O)N3CCN(c4ccc(N5CCOCC5)nn4)CC3)sc1-2 | inconclusive: 18.5 µM [inhibitor, single point]
55 | CC(C)CC(O)C1CCN(C(=O)CCc2nnc(-c3ccc4c(c3)OCO4)o2)CC1 (centres undefined) | inactive
56 | Cc1ccc(NC(=O)C2CC3CCC2C3)c(Br)c1 (centres undefined) | inactive
57 | Cc1c(Cl)cccc1NC(=O)CN1C(=O)CSc2ncccc21 | inconclusive: 11.7 µM [inhibitor, single point]
58 | CCOC(=O)c1ccc(NC(=S)NC(=O)C2CCCC2)cc1 | inactive
59 | O=C(N/N=C/c1cc(Br)c(Br)s1)c1ccncc1 | inconclusive: 2.08 µM [inhibitor, full curve]
60 | Cc1ccc(-n2cc(CN3CCC(O)(c4ccccn4)CC3)c(-c3ccc(F)cc3)n2)cc1 | active: 2.33 µM
61 | CCOc1ccc(S(=O)(=O)NCc2ccccn2)cc1NC(=O)c1ccccc1 | inconclusive: 18.5 µM [inhibitor, single point]
62 | COc1ccc(OC)c(NC(=O)CCCNC(=O)Cn2cnc3sc(C)c(C)c3c2=O)c1 | inconclusive: 1.17 µM [inhibitor, full curve]
63 | Cc1cccc(OCC(=O)Nc2nnc(-c3ccco3)s2)c1 | active: 5.22 µM
64 | O=C(CSc1ncn[nH]1)Nc1nnc(-c2ccccc2)s1 | inactive
65 | CCc1ccccc1OCC(=O)Nc1ccc(C)c(S(=O)(=O)N2CCCCCC2)c1 | inconclusive: 10.4 µM [inhibitor, single point]
66 | CCOc1cc(N2CCOCC2)c(OCC)cc1NC(=O)Cc1ccccc1OC | active: 7.38 µM
67 | COc1ccc(S(=O)(=O)N2CCC(C(=O)NCCC(=O)Nc3nccs3)CC2)cc1 | inconclusive: 7.38 µM [inhibitor, partial curve]
68 | CN(C)c1ccnc(Oc2ccc(C(C)(C)C)cc2)c1C#N | inconclusive: 18.5 µM [inhibitor, single point]
69 | COc1ccc(C2/C(=C(/O)c3ccccc3)C(=O)C(=O)N2C)c(OC)c1 (centres undefined) | inconclusive: 10.4 µM [inhibitor, partial curve, poor fit]

Arranged by length of the SMILES (largest number first): some entries from above.
Row | SMILES | Potency
14 | O=S(=O)(NCCCCCNS(=O)(=O)c1c(F)cccc1F)c1ccc2c(c1)OCCO2 | inconclusive: 0.0738 µM [inhibitor, full curve, poor fit]
55 | CC(C)CC(O)C1CCN(C(=O)CCc2nnc(-c3ccc4c(c3)OCO4)o2)CC1 (centres undefined) | inactive
39 | CN(Cc1c(F)cccc1Cl)C(=O)CNC(=O)c1ccc2c(c1)OCO2 | inactive
53 | CCN1CCN(C(c2ccccc2)c2nnnn2Cc2ccc(OC)cc2)CC1 (centres undefined) | active: 5.22 µM
64 | O=C(CSc1ncn[nH]1)Nc1nnc(-c2ccccc2)s1 | inactive
49 | COC(=O)C(O)(NC(=O)c1ccncc1)C(F)(F)F (centres undefined) | inactive
